Patent publication US20200405889A1
These are yes or no findings as the source states them, for the method shown. Some entries that bind do so weakly or less than the wild type.

Protein sequences, listed by entry. Tags and fused reporters are not part of them.
UniProt P41597: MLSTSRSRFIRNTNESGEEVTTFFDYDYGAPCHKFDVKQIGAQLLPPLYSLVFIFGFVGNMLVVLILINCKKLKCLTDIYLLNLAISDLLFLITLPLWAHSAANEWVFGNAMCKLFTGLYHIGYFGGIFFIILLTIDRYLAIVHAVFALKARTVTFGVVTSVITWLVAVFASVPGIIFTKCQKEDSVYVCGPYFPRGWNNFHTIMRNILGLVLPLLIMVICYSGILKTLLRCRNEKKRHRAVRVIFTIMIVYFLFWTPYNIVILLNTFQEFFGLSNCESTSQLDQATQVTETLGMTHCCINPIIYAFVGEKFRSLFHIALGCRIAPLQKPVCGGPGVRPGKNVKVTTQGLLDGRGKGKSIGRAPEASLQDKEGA

Target: human CCR2 (hCCR2) (human) (UniProt P41597)
Test: flow cytometry of cells digested from a human COPD lung sample

- binding: binds
Binder: LGTFLKC (Alexa Fluor 647 label; site of attachment not stated) [ECL1i-647 (Alexa Fluor 647)]
